According to patent US20140193431A1 (KOREA RESEARCH INSTITUTE OF BIOSCIENCE AND BIOTECHNOLOGY, published 2014):
No constants are given. Whether binding was seen depends on the method and setting. Binding seen in cells or lysates may run through a third protein. Some entries that bind do so weakly or less than the wild type.

Chains of the proteins cited; added tags and fusions are not shown. Residues count along the entry.
UniProt P08581, residues 25-932: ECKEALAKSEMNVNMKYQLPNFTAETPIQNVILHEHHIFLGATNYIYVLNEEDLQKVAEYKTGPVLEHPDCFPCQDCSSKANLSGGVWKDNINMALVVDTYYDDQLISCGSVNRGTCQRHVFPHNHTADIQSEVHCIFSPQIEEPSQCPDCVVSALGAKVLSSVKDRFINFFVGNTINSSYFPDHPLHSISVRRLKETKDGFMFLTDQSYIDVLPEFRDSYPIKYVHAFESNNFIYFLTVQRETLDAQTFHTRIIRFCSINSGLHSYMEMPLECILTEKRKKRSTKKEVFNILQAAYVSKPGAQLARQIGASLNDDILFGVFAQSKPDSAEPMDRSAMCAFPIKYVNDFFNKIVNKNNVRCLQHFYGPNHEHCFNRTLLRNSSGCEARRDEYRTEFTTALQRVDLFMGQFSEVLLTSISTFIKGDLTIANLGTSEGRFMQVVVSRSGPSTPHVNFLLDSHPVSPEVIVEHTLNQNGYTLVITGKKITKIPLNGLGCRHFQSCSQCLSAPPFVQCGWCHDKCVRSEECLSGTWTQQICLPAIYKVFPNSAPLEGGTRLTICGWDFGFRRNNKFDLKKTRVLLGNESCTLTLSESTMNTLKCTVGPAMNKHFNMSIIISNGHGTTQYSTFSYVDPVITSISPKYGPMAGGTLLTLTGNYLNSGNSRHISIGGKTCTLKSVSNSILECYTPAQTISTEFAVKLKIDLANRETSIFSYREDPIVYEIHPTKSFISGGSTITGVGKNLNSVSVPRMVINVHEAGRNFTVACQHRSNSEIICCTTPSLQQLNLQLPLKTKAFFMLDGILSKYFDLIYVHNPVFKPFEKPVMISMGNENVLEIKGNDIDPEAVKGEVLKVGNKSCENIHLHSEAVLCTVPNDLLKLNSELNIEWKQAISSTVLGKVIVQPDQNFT
UniProt P14210, residues 32-728: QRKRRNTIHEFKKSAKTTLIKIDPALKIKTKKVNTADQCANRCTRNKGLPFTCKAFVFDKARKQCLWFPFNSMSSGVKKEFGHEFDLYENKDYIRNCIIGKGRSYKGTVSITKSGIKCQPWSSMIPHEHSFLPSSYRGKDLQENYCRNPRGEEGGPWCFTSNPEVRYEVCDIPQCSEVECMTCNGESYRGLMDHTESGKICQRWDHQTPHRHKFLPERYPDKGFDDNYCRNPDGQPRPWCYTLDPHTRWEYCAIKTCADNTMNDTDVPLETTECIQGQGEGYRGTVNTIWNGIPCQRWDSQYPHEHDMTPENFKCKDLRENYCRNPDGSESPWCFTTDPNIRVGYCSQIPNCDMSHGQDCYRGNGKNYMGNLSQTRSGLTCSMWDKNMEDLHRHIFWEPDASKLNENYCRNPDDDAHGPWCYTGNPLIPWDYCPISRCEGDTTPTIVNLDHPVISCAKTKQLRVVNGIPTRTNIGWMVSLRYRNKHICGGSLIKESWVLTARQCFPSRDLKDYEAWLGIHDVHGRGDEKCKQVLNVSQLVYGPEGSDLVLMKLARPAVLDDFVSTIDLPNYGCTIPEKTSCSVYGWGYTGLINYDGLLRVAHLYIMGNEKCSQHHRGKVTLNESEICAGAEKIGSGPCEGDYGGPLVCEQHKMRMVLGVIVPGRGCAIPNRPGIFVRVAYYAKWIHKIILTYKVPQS

Biological target: c-Met (extracellular domain)-Fc (human) (UniProt P08581)
Experiment: pull-down: HGF (100 ng) with Sema-Fc (0.5 ug) on protein A beads, Western blot with anti-human HGF; no lane without Sema-Fc is shown

binding: binds
Substance: hepatocyte growth factor (HGF) (from UniProt P14210 32-728) (ligand)
